From paper PMC7819943, “Rice protein-binding microarrays: a tool to detect cis-acting elements near promoter regions in rice”
This is one part of the list.

The sequences below were run against T1, OsSMF1 (Oryza sativa, UniProt Q6ZLB0 1-436) (assay: protein-binding microarray (RPBM); PBS, 2% BSA, 51.3 ng/ul salmon testes DNA, 50 uM zinc acetate, 200 nM TF, 25 C, 1 h; high values mean tight binding). Conditions: protein: recombinant; tags: N-terminal polyhistidine and DsRed monomer fusion (pET32a); chain copies: 2; label: CyDye5-dUTP incorporated in the synthesized complementary strand; 3' TTTTT single-stranded linker to array surface; dsDNA, one strand shown.
T1 sequence: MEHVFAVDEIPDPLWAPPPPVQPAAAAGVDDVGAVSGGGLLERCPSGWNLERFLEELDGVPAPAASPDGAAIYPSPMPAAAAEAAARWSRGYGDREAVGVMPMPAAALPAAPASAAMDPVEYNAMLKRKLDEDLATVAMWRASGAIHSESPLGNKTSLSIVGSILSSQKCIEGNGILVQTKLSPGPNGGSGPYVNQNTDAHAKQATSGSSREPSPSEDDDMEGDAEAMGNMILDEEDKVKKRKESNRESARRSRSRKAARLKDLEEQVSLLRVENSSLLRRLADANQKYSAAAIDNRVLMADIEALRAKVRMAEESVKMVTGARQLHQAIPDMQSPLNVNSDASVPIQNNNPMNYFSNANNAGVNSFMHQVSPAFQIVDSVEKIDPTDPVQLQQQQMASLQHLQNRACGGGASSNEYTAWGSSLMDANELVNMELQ
How it was run: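 Binding signal here means per-feature fluorescence intensity in arbitrary units. The values were read on an Axon 4000B scanner after a custom Agilent array, double-stranded by primer extension with Cy5-dUTP, was incubated with 200 nM protein at 25 °C for 1 h in PBS with 2% BSA, salmon testes DNA and 50 µM zinc acetate, then washed. The proteins were transcription factors with an N-terminal polyhistidine tag and DsRed, expressed in E. coli BL21-CodonPlus and purified on Ni–NTA.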

Sequence | binding signal
GCCGCCGCGTGGAGGCCGAGACGCCGCCGCCGCCGCCACGCGGAGTCACCTAGTGCAG | 3240 fluorescence intensity (a.u.)
GCGCTAATGGACTGCTCTAGCCCTAGCCCTTGCGTGTGCACGGAGTCACCTAGTGCAG | 3170 fluorescence intensity (a.u.)
CGCATCCCCGACAGGTCGACGCCCTCGTCAGCAACGATGACGGAGTCACCTAGTGCAG | 7100 fluorescence intensity (a.u.)
CGTAAATGCCACCGCACTACCACTTCAATCCCTCCCTCTCCGGAGTCACCTAGTGCAG | 3350 fluorescence intensity (a.u.)
GTGCTTTACGATTCGCGCTGGCTGCGTGGCCCCACCCGTCCGGAGTCACCTAGTGCAG | 3970 fluorescence intensity (a.u.)
CGAGATCAGCCTACCAGCATGACGCGTGTTCGCGAAGGACCGGAGTCACCTAGTGCAG | 5310 fluorescence intensity (a.u.)
TTCAGATGTACAATTTTGCTGGATTACTAGTAGTTTTCTTCGGAGTCACCTAGTGCAG | 17600 fluorescence intensity (a.u.)
GGGGATCGACTACGACGATGCCTTCGCTCCCGTGGCACGGCGGAGTCACCTAGTGCAG | 3180 fluorescence intensity (a.u.)
CCGCCGCCGCCGCCGCCGCCGCCATTGCCGATGCCGCCCTCGGAGTCACCTAGTGCAG | 3800 fluorescence intensity (a.u.)
TGTTGAGTCGATTCAGAGAACCACGTAGTGTTGGTACACTCGGAGTCACCTAGTGCAG | 3180 fluorescence intensity (a.u.)
TAGCAAAGTTTGCCAAAATTGTATTGGTTGATGTGTATTGCGGAGTCACCTAGTGCAG | 3150 fluorescence intensity (a.u.)
GATAGAATCTTTCACCTCACAAGGGGTGGCATAAGCAAGGCGGAGTCACCTAGTGCAG | 7300 fluorescence intensity (a.u.)
GGGGTAGGGTTTGCATGCTTGAGTTCATAGGGTACGTCGCCGGAGTCACCTAGTGCAG | 3620 fluorescence intensity (a.u.)
AGGAGAAAGGCCGGCGAAGTGCCACGTGTCCACGACGGCCCGGAGTCACCTAGTGCAG | 28600 fluorescence intensity (a.u.)
ACACTCAAAAGAACATGTACCTTCTCGTCAACATCATATACGGAGTCACCTAGTGCAG | 3400 fluorescence intensity (a.u.)
TCTCTCCTCTTCCAAAATGTCTCCCGACGCCGACGCGGCGCGGAGTCACCTAGTGCAG | 3550 fluorescence intensity (a.u.)
TATTATCAAGGATCTTATGTTGCAGCGTGACAAAGCAGTACGGAGTCACCTAGTGCAG | 3360 fluorescence intensity (a.u.)
CGCTGCCTCAGTCGTCTCGTCTCGTCACGACAGCACAGTACGGAGTCACCTAGTGCAG | 4940 fluorescence intensity (a.u.)
TGATACATTACTCAAGGAAACAGTCACACAGTCTATCACGCGGAGTCACCTAGTGCAG | 3200 fluorescence intensity (a.u.)
GCCCACGTGGCACGCTGACGTGTCCACCTGCCGCGCCGGTCGGAGTCACCTAGTGCAG | 26900 fluorescence intensity (a.u.)
ACGAGATCATCATCTGTAGTTCTTTTGTTGTGCTTTTCATCGGAGTCACCTAGTGCAG | 3320 fluorescence intensity (a.u.)
AGAACTCAACTGGACACACAGTCACAGACAGTGGGCCCTGCGGAGTCACCTAGTGCAG | 3560 fluorescence intensity (a.u.)
CTCCTACCTCTACCGCTGCTACTCACCACACCAGCCGCCGCGGAGTCACCTAGTGCAG | 24200 fluorescence intensity (a.u.)
CCCCTCGCGTCAACACCACCGCGCGCACGCGCTGCTCCTGCGGAGTCACCTAGTGCAG | 4590 fluorescence intensity (a.u.)
AGTACATAATTACGCACATGTGACACACACCACACATACTCGGAGTCACCTAGTGCAG | 3140 fluorescence intensity (a.u.)
CTACCCCGTTGTCGACTACGTGTTGGTGTTCCATGTCGCCCGGAGTCACCTAGTGCAG | 6370 fluorescence intensity (a.u.)
CGCGGCGGCGGCCGTCTTCTCCTCGTTGCTCAGCTCTGGCCGGAGTCACCTAGTGCAG | 27300 fluorescence intensity (a.u.)

Sequence | binding signal
ACGTATATAAATTTTGTATACACATATGCAAACTTTGTATCGGAGTCACCTAGTGCAG | 3920 fluorescence intensity (a.u.)
GGATCGAAACTTGTGTTAAACACGTCAACTTCATGCATCTCGGAGTCACCTAGTGCAG | 3310 fluorescence intensity (a.u.)
ATTACTCTTTGTAATGTTTCAGTGCAGCTCCTTTGTGATACGGAGTCACCTAGTGCAG | 3850 fluorescence intensity (a.u.)
AGTCGGAAGGCCACCACATCTGCATGCCATTCTCGTCATTCGGAGTCACCTAGTGCAG | 4590 fluorescence intensity (a.u.)
TAAAGTTGTATTTAATGAAACTAGTTTGGTGTTATAAATGCGGAGTCACCTAGTGCAG | 30400 fluorescence intensity (a.u.)
TGTGCCCGAGGACATGGCGATTGCTGAGGAAATGGCACTGCGGAGTCACCTAGTGCAG | 3210 fluorescence intensity (a.u.)
GTTCAGAATCAGAACTCCGTTTTAATTTGTTCATTAAAGACGGAGTCACCTAGTGCAG | 21400 fluorescence intensity (a.u.)
ATAAGATCACTGATGACACAACACATATGGTTCTTGCAGTCGGAGTCACCTAGTGCAG | 5070 fluorescence intensity (a.u.)
CACACACTACTCCCGCCACGTGGCACGCTCCCACTGGACCCGGAGTCACCTAGTGCAG | 26300 fluorescence intensity (a.u.)
GGCTATTGGGAGCCACGTCAGCCGGTGGCCTCCGCCATCGCGGAGTCACCTAGTGCAG | 22600 fluorescence intensity (a.u.)
AACAGCAGGCCCCACGTGTCACCGACCCGCCTCCCACGTTCGGAGTCACCTAGTGCAG | 12500 fluorescence intensity (a.u.)
ATTGACCGCTTCTGTGATTCGTGATTGGGCTATTTGTAATCGGAGTCACCTAGTGCAG | 3310 fluorescence intensity (a.u.)
GCAGTACGGCAGTAGGTCTGACTCACGCGTCCACGAAAATCGGAGTCACCTAGTGCAG | 3940 fluorescence intensity (a.u.)
AGTACGCTTCTACAGTCTGGATCTGCGTGCCTGGCACGAACGGAGTCACCTAGTGCAG | 3190 fluorescence intensity (a.u.)
CCCGAGAGCGAACGGCCGTCTGCCACGTCATTTTCGCCGCCGGAGTCACCTAGTGCAG | 29700 fluorescence intensity (a.u.)
TGGATCTCTGTCACCGTGTACCGTGATACGCCAAAACCCGCGGAGTCACCTAGTGCAG | 4890 fluorescence intensity (a.u.)
GGGGCTCCCGGAGCACGGCGATGGCCACGTGAGGTACCTGCGGAGTCACCTAGTGCAG | 3400 fluorescence intensity (a.u.)
ATAAGTCTATGGCTAGTTTTAGCATTTAATGTCTTATGGCCGGAGTCACCTAGTGCAG | 3970 fluorescence intensity (a.u.)
ACGATCCAGACACATCACATGTGGCCCCATGCTTCCATCCCGGAGTCACCTAGTGCAG | 5170 fluorescence intensity (a.u.)
GCGGGGCGGTGACAACGACGGCGGTGCGGGGCGGTGGTGACGGAGTCACCTAGTGCAG | 7540 fluorescence intensity (a.u.)
GATAAGCTGATTCGGTCGAAATGTTAGGTGGTTTCTCAAGCGGAGTCACCTAGTGCAG | 3190 fluorescence intensity (a.u.)
CTGCTATCGTACACCATAGCAATGCCACGTGTTAGAATATCGGAGTCACCTAGTGCAG | 9800 fluorescence intensity (a.u.)
GAGGTAATCGACCTCATCACTGTCAATGATGTGGAGCGCACGGAGTCACCTAGTGCAG | 3940 fluorescence intensity (a.u.)
TCCATACATTATTGACGTAATCATAAATATACATCCATGTCGGAGTCACCTAGTGCAG | 3360 fluorescence intensity (a.u.)
ACCGCCACGTGGACAAGCTCACGATCACGTGCCGCTCACGCGGAGTCACCTAGTGCAG | 4790 fluorescence intensity (a.u.)
TAAAGATGTCTTTTGTTGGGTGGGAAATCATTTTCATTTCCGGAGTCACCTAGTGCAG | 3160 fluorescence intensity (a.u.)
GAAGAAAATGGAGTTAGATGATGTCAAACTGCATGTGATCCGGAGTCACCTAGTGCAG | 3550 fluorescence intensity (a.u.)

As a working copy, some entries already given:
Sequence | binding signal
CACACACTACTCCCGCCACGTGGCACGCTCCCACTGGACCCGGAGTCACCTAGTGCAG | 26300 fluorescence intensity (a.u.)
GGCTATTGGGAGCCACGTCAGCCGGTGGCCTCCGCCATCGCGGAGTCACCTAGTGCAG | 22600 fluorescence intensity (a.u.)
AACAGCAGGCCCCACGTGTCACCGACCCGCCTCCCACGTTCGGAGTCACCTAGTGCAG | 12500 fluorescence intensity (a.u.)
